Reference: paper PMC6646387, “Identification of intracellular cavin target proteins reveals cavin-PP1alpha interactions regulate apoptosis” (Nature Communications, 2019)
No constants are given. Whether binding was seen depends on the method and setting. For part of these data: In cells and extracts the contact can be indirect. Some results given as binding are weak or reduced against the parent protein; the word gives no strength. For part of these data: Sequences can lack the tags named with a protein. One block for each molecule: values may come before it.

Protein sequences, listed by entry. Tags and fused reporters are not part of them.
UniProt P62136: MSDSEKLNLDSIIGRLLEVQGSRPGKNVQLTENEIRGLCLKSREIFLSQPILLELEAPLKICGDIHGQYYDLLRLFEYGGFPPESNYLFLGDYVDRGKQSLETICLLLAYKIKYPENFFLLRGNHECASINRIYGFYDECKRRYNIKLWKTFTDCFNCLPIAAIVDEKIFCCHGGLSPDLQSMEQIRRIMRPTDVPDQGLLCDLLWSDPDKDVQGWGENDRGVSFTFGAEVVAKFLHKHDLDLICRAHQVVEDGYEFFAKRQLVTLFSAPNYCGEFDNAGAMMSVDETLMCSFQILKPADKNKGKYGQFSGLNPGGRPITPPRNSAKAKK
UniProt P53396: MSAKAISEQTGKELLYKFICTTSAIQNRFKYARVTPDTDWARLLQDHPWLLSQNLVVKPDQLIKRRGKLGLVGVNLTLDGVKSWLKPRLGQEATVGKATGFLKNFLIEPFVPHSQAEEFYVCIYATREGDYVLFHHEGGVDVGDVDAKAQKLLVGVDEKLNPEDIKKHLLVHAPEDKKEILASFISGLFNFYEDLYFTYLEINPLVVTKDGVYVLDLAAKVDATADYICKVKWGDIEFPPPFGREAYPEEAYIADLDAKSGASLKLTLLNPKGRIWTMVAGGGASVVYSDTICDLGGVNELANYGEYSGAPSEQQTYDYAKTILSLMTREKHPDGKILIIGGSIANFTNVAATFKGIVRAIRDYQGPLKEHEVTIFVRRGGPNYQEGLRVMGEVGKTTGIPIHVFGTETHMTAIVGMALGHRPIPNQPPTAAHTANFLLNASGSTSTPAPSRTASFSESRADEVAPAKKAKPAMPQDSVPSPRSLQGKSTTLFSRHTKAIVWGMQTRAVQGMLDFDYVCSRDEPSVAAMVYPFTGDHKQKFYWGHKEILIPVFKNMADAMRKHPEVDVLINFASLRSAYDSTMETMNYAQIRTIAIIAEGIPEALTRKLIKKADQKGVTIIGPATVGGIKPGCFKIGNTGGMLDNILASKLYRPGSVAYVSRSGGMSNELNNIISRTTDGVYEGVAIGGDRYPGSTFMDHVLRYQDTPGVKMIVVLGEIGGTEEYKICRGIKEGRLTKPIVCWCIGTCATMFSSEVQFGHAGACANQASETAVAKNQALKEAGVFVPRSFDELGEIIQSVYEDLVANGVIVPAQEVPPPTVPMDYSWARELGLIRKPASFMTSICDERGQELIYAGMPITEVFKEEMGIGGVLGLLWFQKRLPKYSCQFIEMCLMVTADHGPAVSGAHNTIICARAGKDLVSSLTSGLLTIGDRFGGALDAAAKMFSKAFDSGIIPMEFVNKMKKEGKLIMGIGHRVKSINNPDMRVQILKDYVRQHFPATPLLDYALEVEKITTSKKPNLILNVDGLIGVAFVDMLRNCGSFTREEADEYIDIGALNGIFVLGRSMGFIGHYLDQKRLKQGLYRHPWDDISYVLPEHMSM
UniProt Q15717: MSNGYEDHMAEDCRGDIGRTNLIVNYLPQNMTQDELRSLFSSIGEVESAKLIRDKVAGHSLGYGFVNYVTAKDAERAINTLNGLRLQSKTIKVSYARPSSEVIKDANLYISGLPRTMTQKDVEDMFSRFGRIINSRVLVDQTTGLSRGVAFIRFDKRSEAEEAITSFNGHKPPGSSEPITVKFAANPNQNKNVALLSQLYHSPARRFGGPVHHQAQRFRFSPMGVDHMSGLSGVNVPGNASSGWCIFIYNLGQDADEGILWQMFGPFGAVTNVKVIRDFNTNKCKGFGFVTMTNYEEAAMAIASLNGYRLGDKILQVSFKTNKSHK
UniProt O00567: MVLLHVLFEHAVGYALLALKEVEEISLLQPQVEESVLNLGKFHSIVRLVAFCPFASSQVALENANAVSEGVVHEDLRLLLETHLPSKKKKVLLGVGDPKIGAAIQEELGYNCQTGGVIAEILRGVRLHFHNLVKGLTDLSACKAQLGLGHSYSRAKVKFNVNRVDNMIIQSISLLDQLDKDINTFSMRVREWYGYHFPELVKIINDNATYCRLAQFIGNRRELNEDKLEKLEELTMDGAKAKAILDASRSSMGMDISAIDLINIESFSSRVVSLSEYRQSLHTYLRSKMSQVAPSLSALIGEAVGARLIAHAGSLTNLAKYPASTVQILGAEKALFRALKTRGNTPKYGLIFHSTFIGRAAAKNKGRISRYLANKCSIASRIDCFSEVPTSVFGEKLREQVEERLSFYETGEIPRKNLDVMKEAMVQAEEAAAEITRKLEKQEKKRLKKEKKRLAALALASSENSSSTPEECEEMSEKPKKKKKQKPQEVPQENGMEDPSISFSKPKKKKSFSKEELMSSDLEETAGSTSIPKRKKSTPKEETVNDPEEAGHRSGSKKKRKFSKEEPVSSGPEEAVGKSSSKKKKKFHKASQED

What was measured:
[1] = biological target: T1, Cavin3, cell-free expressed (ALPHAScreen) (mouse) (UniProt Q91VJ2); test: AlphaScreen or HTRF; ALPHAScreen (cMyc detection kit, streptavidin donor beads) on pairs co-expressed in Leishmania tarentolae cell-free extract, GFP- and Cherry-cMyc-tagged, both configurations averaged, GFP alone subtracted, values above 2000 counted as positive, room temperature
T1 sequence: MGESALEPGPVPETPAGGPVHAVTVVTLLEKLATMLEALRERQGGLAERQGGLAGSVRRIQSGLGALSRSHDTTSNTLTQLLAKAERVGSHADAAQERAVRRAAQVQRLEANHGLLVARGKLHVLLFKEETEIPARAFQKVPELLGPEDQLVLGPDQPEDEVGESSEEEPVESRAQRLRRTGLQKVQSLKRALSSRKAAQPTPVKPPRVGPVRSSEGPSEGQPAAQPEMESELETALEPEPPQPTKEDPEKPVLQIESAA

[2] = biological target: T2, Cavin1, cell-free expressed (ALPHAScreen) (mouse) (UniProt O54724); test: as above
T2 sequence: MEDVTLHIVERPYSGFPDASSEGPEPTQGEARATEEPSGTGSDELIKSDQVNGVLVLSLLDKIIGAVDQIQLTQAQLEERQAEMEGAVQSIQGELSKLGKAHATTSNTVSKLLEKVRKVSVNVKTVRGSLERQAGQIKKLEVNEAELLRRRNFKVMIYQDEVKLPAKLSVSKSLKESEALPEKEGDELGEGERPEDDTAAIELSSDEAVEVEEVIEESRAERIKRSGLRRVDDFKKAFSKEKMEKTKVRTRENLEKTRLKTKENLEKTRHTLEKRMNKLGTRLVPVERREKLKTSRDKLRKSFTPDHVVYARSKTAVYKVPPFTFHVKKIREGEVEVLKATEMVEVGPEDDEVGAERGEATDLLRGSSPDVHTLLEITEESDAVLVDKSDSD

[3] = biological target: T3, Cavin2, cell-free expressed (ALPHAScreen) (mouse) (UniProt Q63918); test: as above
T3 sequence: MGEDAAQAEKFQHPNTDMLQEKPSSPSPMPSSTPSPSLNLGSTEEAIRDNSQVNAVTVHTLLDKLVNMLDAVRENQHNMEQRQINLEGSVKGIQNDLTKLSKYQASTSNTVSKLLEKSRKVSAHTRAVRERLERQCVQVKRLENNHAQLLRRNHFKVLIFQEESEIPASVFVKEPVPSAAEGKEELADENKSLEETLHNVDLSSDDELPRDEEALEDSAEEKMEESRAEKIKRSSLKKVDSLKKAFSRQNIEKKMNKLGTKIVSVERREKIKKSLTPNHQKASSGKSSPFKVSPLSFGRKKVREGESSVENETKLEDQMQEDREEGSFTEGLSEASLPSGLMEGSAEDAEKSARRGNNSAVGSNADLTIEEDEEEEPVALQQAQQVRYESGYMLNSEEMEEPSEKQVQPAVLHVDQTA

[4] = biological target: T4, GFP-tagged Cavin3 HR2 domain, cell-free expressed (mouse) (UniProt Q91VJ2); test: AlphaScreen or HTRF; AlphaLISA: GFP-tagged cavin constructs and Cherry-tagged PP1α co-expressed in LTE, diluted 100 times in 25 mM HEPES, 50 mM NaCl, 0.1% BSA, 0.01% Nonidet P-40; anti-GFP acceptor beads, biotinylated mCherry nanobody on streptavidin donor beads, room temperature; GFP-FKBP as negative control
T4 sequence: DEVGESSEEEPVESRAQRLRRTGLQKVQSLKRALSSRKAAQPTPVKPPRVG

[5] = biological target: T5, GFP-tagged Cavin1 FL, cell-free expressed (AlphaLISA) (mouse) (UniProt O54724); test: as above
T5 sequence: T2 sequence

[6] = biological target: T6, GFP-tagged Cavin1 HR2 domain, cell-free expressed (mouse) (UniProt O54724); test: as above
T6 sequence: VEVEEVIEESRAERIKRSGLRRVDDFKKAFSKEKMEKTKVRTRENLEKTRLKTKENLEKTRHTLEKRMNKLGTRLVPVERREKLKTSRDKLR

[7] = biological target: T7, endogenous Cavin3 (human (endogenous in A431 and MDA-MB-231)) (UniProt Q969G5); test: proximity ligation; Duolink PLA of endogenous proteins in MDA-MB-231 cells, untreated or after UV treatment
T7 sequence: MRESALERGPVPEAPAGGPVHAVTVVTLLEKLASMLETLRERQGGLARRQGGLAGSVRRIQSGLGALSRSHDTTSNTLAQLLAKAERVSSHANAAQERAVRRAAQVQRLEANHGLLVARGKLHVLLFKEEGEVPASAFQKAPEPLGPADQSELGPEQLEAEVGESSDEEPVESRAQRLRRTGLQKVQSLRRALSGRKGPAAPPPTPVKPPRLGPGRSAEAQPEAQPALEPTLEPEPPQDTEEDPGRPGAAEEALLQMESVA

Cavin3-GFP (mouse) [8] = biological target: T8, Cavin3-GFP (mouse) (UniProt Q91VJ2); test: co-IP; GFP Trap pulldown from transfected A431 cells (RIPA buffer), control or UV-treated, western blot
T8 sequence: T1 sequence

Cavin1-GFP (mouse) [9] = biological target: T9, Cavin1-GFP (mouse) (UniProt O54724); test: co-IP; GFP Trap pulldown from transfected MCF-7 cells (cytosolic fractions, RIPA buffer, 1 h 4 °C), western blot
T9 sequence: T2 sequence

[10] = biological target: T10, GFP-tagged Cavin3 HR1 domain, in MCF-7 cells (mouse) (UniProt Q91VJ2); test: as above
T10 sequence: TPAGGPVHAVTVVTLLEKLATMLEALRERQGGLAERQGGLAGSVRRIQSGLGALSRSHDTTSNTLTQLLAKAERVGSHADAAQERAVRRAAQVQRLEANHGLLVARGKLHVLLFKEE

Cavin2-GFP (mouse) = biological target: T11, Cavin2-GFP (mouse) (UniProt Q63918); test: as above
T11 sequence: T3 sequence

Cavin3-GFP (mouse) [11] = biological target: T8, Cavin3-GFP (mouse); test: as above
[12] = biological target: T12, GFP-tagged Cavin3 HR2 domain, in MCF-7 cells (mouse) (UniProt Q91VJ2); test: as above
T12 sequence: T4 sequence

Cavin1-GFP (mouse) [13] = biological target: T9, Cavin1-GFP (mouse); test: proximity ligation; Duolink PLA in MCF-7 cells transfected with GFP-tagged cavins, anti-GFP (mouse) and anti-PP1α (rabbit) antibodies; GFP-vector as control
Cavin3-GFP (mouse) [14] = biological target: T8, Cavin3-GFP (mouse); test: as above
[15] = biological target: T7, endogenous Cavin3 (human (endogenous in A431 and MDA-MB-231)); test: proximity ligation; Duolink PLA of endogenous proteins in untreated A431 cells (steady state)
[16] = biological target: T13, endogenous Cavin1 (human (endogenous in A431)) (UniProt Q6NZI2); test: as above
T13 sequence: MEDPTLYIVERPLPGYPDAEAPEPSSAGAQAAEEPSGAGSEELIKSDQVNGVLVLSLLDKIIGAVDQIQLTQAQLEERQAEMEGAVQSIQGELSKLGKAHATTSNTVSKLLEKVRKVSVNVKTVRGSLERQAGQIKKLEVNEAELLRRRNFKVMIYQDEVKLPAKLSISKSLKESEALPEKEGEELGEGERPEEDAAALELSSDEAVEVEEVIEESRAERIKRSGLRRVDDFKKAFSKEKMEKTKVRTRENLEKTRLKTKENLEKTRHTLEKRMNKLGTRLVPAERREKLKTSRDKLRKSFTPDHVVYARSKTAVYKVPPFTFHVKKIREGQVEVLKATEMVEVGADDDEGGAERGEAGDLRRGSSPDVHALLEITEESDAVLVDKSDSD

mCherry-Cavin1 (mouse) = mCherry-Cavin1 (mouse) (UniProt O54724); test: single-molecule coincidence detection; PNS fraction of MCF-7 cells cotransfected with GFP-PP1α and Cherry-Cavin1 or Cherry-Cavin3, in PBS, diluted to about 1 nM; two-colour confocal detection; C = mCherry/(GFP+mCherry); oligomeric state from burst brightness
GFP-PP1α = biological target: T14, GFP-PP1α (UniProt P62136 1-330); test: co-IP; GFP Trap pulldown from transfected MCF-7 cells (cytosolic fractions, RIPA buffer, 1 h 4 °C), western blot
T14 construct: serine/threonine-protein phosphatase PP1alpha catalytic subunit (PP1α); construct provided by the Trinkle-Mulcahy Laboratory; printed both as GFP-PP1α and PP1α-GFP; also called PP1α-GFP; PP1alpha-GFP; source: MCF-7 or A431, transfected, in lysate

mCherry-Cavin3 (mouse) = mCherry-Cavin3 (mouse) (UniProt Q91VJ2); test: single-molecule coincidence detection; PNS fraction of MCF-7 cells cotransfected with GFP-PP1α and Cherry-Cavin1 or Cherry-Cavin3, in PBS, diluted to about 1 nM; two-colour confocal detection; C = mCherry/(GFP+mCherry); oligomeric state from burst brightness

Molecule: ATP citrate lyase (ACLY), cell-free expressed (from UniProt P53396 1-1101) (enzyme)
- binding [1]: binds
- binding [2]: binds

Molecule: PP1α, cell-free expressed (ALPHAScreen) (from UniProt P62136 1-330) (enzyme)
- binding [3]: binds
- binding [1]: binds
- binding [2]: binds

Molecule: PP1α-mCherry, cell-free expressed (AlphaLISA) (from UniProt P62136 1-330) (enzyme)
- binding [4]: binds
- binding [5]: binds
- binding [6]: binds

Molecule: endogenous PP1α (from UniProt P62136 1-330) (enzyme)
- binding [7]: binds
- binding (Cavin3-GFP (mouse) [8]): binds
- binding (Cavin1-GFP (mouse) [9]): binds
- binding [10]: no binding
- binding (Cavin2-GFP (mouse)): binds
- binding (Cavin3-GFP (mouse) [11]): binds
- binding [12]: binds
- binding (Cavin1-GFP (mouse) [13]): binds
- binding (Cavin3-GFP (mouse) [14]): binds
- binding [15]: binds weakly
- binding [16]: binds weakly

Molecule: p53, cell-free expressed (from UniProt P04637 1-393)
- binding [3]: binds
- binding [1]: binds
- binding [2]: binds

B2: mCherry-Cavin3 (natural protein, mouse, UniProt Q91VJ2 1-260, looked up)
chain: T1 sequence
notes: Murine Cavin-3 (PRKCDBP), amplified from NIH-3T3 fibroblast cDNA, in an mCherry vector; also called mCherry-tagged Cavin3; source: MCF-7, transfected, in lysate (cytosolic or PNS fraction)
- binding (mCherry-Cavin3 (mouse)): no binding
- binding (GFP-PP1α): binds

Now from value to molecule, other results behind:

- binding [3]: binds
- binding [1]: binds
- binding [2]: binds
Molecule: ELAV-like RNA-binding protein 1 (ELAV1), cell-free expressed (from UniProt Q15717 1-326)

- binding [2]: binds
Molecule: nucleolar protein 56 (NOP56), cell-free expressed (from UniProt O00567 1-594)

- binding (GFP-PP1α): binds
B1: mCherry-Cavin1 (natural protein, mouse, UniProt O54724 1-392, looked up)
chain: T2 sequence
notes: Murine Cavin-1 (PTRF, caveolae-associated protein 1); oligomeric in MCF-7 cells by burst brightness; also called mCherry-tagged Cavin1; source: MCF-7, transfected, in lysate (cytosolic or PNS fraction)
- binding (mCherry-Cavin1 (mouse)): binds
